Our source for the binding signal values is paper PMC7819943, “Rice protein-binding microarrays: a tool to detect cis-acting elements near promoter regions in rice”.

By UniProt entry, the sequences of proteins in these tests, tags left out.
UniProt Q0JBA9, entry or part of it: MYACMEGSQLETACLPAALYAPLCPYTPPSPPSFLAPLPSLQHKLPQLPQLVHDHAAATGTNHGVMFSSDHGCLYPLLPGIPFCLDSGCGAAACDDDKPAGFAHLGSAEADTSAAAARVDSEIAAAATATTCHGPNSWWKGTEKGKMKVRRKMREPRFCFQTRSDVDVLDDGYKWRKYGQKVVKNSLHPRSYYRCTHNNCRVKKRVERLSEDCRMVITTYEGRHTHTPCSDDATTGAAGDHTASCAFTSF

This is one part of the list.

For this assay, the target named is OsWRKY34 (Oryza sativa, UniProt Q0JBA9 1-250). Briefly: protein-binding microarray (RPBM); PBS, 2% BSA, 51.3 ng/ul salmon testes DNA, 50 uM zinc acetate, 200 nM TF, 25 C, 1 h; high values mean tight binding. To be noted: protein: recombinant; tags: N-terminal polyhistidine and DsRed monomer fusion (pET32a); label: CyDye5-dUTP incorporated in the synthesized complementary strand; 3' TTTTT single-stranded linker to array surface; dsDNA, one strand shown. The essentials: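 Binding signal here means per-feature fluorescence intensity in arbitrary units. The values were read on an Axon 4000B scanner after a custom Agilent array, double-stranded by primer extension with Cy5-dUTP, was incubated with 200 nM protein at 25 °C for 1 h in PBS with 2% BSA, salmon testes DNA and 50 µM zinc acetate, then washed. The proteins were transcription factors with an N-terminal polyhistidine tag and DsRed, expressed in E. coli BL21-CodonPlus and purified on Ni–NTA.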
Regarding “CATGGCGAACACACCCTAATTCTGATCATCTTTAATTTCTCGGAGTCACCTAGTGCAG”, the binding signal is 9060 fluorescence intensity (a.u.).

On to “AACACAACAAACTGTCGCCACTGGCTCTGTTTCACTTGCTCGGAGTCACCTAGTGCAG”, for which the binding signal was 8820 fluorescence intensity (a.u.).

On to “TCTCCCGTCGGATACTGTCGGTAGTAGCTTTTTGCCGTGTCGGAGTCACCTAGTGCAG”, for which the binding signal is 8260 fluorescence intensity (a.u.).

Turning to “GTTCCACACGCCCACCCCATCCACAATAATATATCCAATCCGGAGTCACCTAGTGCAG”, the binding signal was 8390 fluorescence intensity (a.u.).

On to “GGACTGCACTATGAATTAATTGGATCACACCTGCTGCTAGCGGAGTCACCTAGTGCAG”, for which the binding signal was 8550 fluorescence intensity (a.u.).

Turning to “GTTGCTTAGATTCGGTTTCTGATATAATCTGACTTGTACACGGAGTCACCTAGTGCAG”, the binding signal is 8190 fluorescence intensity (a.u.).

Consider “CGCGCACCCGTTAACGTATTGATCGACCTTGCCGTTCGTCCGGAGTCACCTAGTGCAG”, for which the binding signal was 11300 fluorescence intensity (a.u.).

Take “CTTCTTTAAACCGCGCCGCGCCGCGCCTACCCAAATATATCGGAGTCACCTAGTGCAG”: the binding signal was 10500 fluorescence intensity (a.u.).

In the case of “GCTGTTGACTTTCGACCTACGTTTGACCATTCGTTTTATTCGGAGTCACCTAGTGCAG”, the binding signal was 20600 fluorescence intensity (a.u.).

Turning to “ATCCTGGTAGTGATCAATAGCTCCTAACCTTTTTTTTTTACGGAGTCACCTAGTGCAG”, the binding signal was 8100 fluorescence intensity (a.u.).

Turning to “CGCCGCCACCACTAGCTCGCTTCATTTCCACCGCACGCACCGGAGTCACCTAGTGCAG”, the binding signal is 8520 fluorescence intensity (a.u.).

Regarding “GCCAACGCCGTGCCGTGTCCATCTACCGCCGCCCACAACTCGGAGTCACCTAGTGCAG”, the binding signal is 9230 fluorescence intensity (a.u.).

Regarding “CATGGGGAGAAGGGAATGTGGGGAGGGAGACAGGAGCTGACGGAGTCACCTAGTGCAG”, the binding signal was 9030 fluorescence intensity (a.u.).

For “GAAGATCGACGGTGCACATATATACTTGCGTTATTTCACTCGGAGTCACCTAGTGCAG”, the binding signal was 9440 fluorescence intensity (a.u.).

As to “ACGTGTCCTTCTCTCTTTTTTTCTTTTTCGTTTTCTTCTCCGGAGTCACCTAGTGCAG”, the binding signal is 8280 fluorescence intensity (a.u.).

Consider “TGCTTATCCGGACATACTACGCGAGTAGGGGATGGGGCCACGGAGTCACCTAGTGCAG”, for which the binding signal is 10800 fluorescence intensity (a.u.).

“TTTTTTTGGGGATTTATCTTTTTTTGGGGATTTTTTTTTTCGGAGTCACCTAGTGCAG”: the binding signal is 12100 fluorescence intensity (a.u.).

In the case of “TGTCGTCCCGTACTACGTCATCTCCAGTCATCTTCTCCCACGGAGTCACCTAGTGCAG”, the binding signal was 8490 fluorescence intensity (a.u.).

Regarding “ATGATTCTTGATGCAAACTCAGTCTAGGTCTTTCTTTGTCCGGAGTCACCTAGTGCAG”, the binding signal is 8910 fluorescence intensity (a.u.).

“CCTTTGTTGTACTAGCCACCAGAAACCAGTGATCAGAATACGGAGTCACCTAGTGCAG”: the binding signal is 8110 fluorescence intensity (a.u.).

As for “TCCTCCTTTTTCTTGTACTCGCAACCTCTCTCACGTTGCGCGGAGTCACCTAGTGCAG”, the binding signal is 8090 fluorescence intensity (a.u.).

“GTGCATTTCGAAATCTGACCGTTCAGCGACCAACTGCATCCGGAGTCACCTAGTGCAG”: the binding signal was 8700 fluorescence intensity (a.u.).

Turning to “GGTGGGGATTACTCTTGGAGACAAATTGCTCTCCGAATTTCGGAGTCACCTAGTGCAG”, the binding signal is 13800 fluorescence intensity (a.u.).

For “GGGTGTATCTTTGATGGGCTTTAAATGGGCCCTCGGCCGACGGAGTCACCTAGTGCAG”, the binding signal is 8430 fluorescence intensity (a.u.).

On to “CTTAGCTCGTATGTAGACTTTTGATGGCTTAATCCTATTTCGGAGTCACCTAGTGCAG”, for which the binding signal is 8550 fluorescence intensity (a.u.).

Consider “TTCTCAACTCCAATCCTCATTCCATTTCCATATTCCGTCTCGGAGTCACCTAGTGCAG”, for which the binding signal is 10200 fluorescence intensity (a.u.).

Regarding “ACAAAACATCACAAGTTACATTCCCACAATTTTGGGCATTCGGAGTCACCTAGTGCAG”, the binding signal is 9040 fluorescence intensity (a.u.).

Turning to “TCCAGTCCGCCGCCCCTACGCCGGTCACCATCGCCGTCATCGGAGTCACCTAGTGCAG”, the binding signal is 10100 fluorescence intensity (a.u.).

As for “ATACTTAAATTTAATGCTACTTATCACATGATGTCTTGGACGGAGTCACCTAGTGCAG”, the binding signal was 8330 fluorescence intensity (a.u.).

Regarding “ACGGCGCGGCGGGGCGACCAGGAGGGGCGGGGTGGCGCGGCGGAGTCACCTAGTGCAG”, the binding signal is 13300 fluorescence intensity (a.u.).

Regarding “GCTGCCGCTCTTCGCCTCTTTTCCGGCCTTCTTTTGATCACGGAGTCACCTAGTGCAG”, the binding signal is 11700 fluorescence intensity (a.u.).

Take “AATCATCTCATTTCTTCTGCTGGTTCCCTACTCTAGCTCGCGGAGTCACCTAGTGCAG”: the binding signal is 8760 fluorescence intensity (a.u.).

On to “TTTTGGAGGTGTTACAGGGGTAAGTATGTGCGTTTGCATGCGGAGTCACCTAGTGCAG”, for which the binding signal was 8720 fluorescence intensity (a.u.).

Take “CTCTAGTGTTCTTGGCGCCTGCGCGCAAGCTTGCGCTACTCGGAGTCACCTAGTGCAG”: the binding signal was 8340 fluorescence intensity (a.u.).

On to “AGCAGCAGCAGCAAGTGTCCCTGTGTCCGTCTCCGCTTCTCGGAGTCACCTAGTGCAG”, for which the binding signal was 9210 fluorescence intensity (a.u.).

Take “CGATCGAGCTAGCCACGCGCCTCTCTCTCTCTCTTTCCTCCGGAGTCACCTAGTGCAG”: the binding signal was 11000 fluorescence intensity (a.u.).

Take “ATTTCTCCTGTTCCTCTTCTGCATTCGTCTCTTGAGAGTTCGGAGTCACCTAGTGCAG”: the binding signal was 11300 fluorescence intensity (a.u.).

Regarding “ACTAATTTACCCTCTGCCATTTTGACGCGCTCTATCGTGCCGGAGTCACCTAGTGCAG”, the binding signal was 8610 fluorescence intensity (a.u.).

With “CCCCTTTTGTTTCCATGCGGTCTGTACGTGGAACCGCATGCGGAGTCACCTAGTGCAG”, the binding signal is 8320 fluorescence intensity (a.u.).

On to “ACAGTGGTATGATGGTGTTCATGCCTTTCTTGCCTTCCATCGGAGTCACCTAGTGCAG”, for which the binding signal is 8710 fluorescence intensity (a.u.).

Regarding “AATTCATTAGCTTTGCGCCGCCACCACCATAACCCCTAACCGGAGTCACCTAGTGCAG”, the binding signal is 11800 fluorescence intensity (a.u.).

For the sequence “ACCGGTCACCTTTGTCTTCTTCCATCTTCTCCTCCCTTTACGGAGTCACCTAGTGCAG”, the binding signal was 10000 fluorescence intensity (a.u.).
